Patent US6805865B1, “Compositions and methods for treating cancer and hyperproliferative disorders” (EntreMed, Inc., priority 1993, dated 2004)

Assay: Incorporation of VEGF peptides into liposomes (BCA assay)
Type: physicochemical
Settings: for conjugation of peptide to liposomes: active peptide conjugation via PDS-CHOL, BCA; for encapsulation of peptide in liposomes: passive encapsulation

Sequence | conjugation of peptide to liposomes | encapsulation of peptide in liposomes
APTTEGEQKSHEVIKFMDVYC (incorporated into liposomes; listed as Homo sapiens) [Peptide E, amino terminal peptide, residues 1-20 of VEGF with C-terminal cysteine, incorporated into liposomes] | 66% | 19%
CRTKPEKCDKPRR (incorporated into liposomes; listed as Homo sapiens) [Peptide C, murine VEGF carboxyl terminal peptide with amino-terminal cysteine, incorporated into liposomes] | 68% | 33%
CECRPKKDRTKPEKCDKPRR (incorporated into liposomes; listed as Homo sapiens) [Peptide D, murine VEGF carboxyl terminal peptide with amino-terminal cysteine, incorporated into liposomes] | 74% | 19%
